At least one read-out could not be matched to a standard name with certainty.
Experiment: Rhodamine B acrylate influx into GUVs, fluorescence intensity ratio Iin/Iout over time
Type: physicochemical
Conditions: diffusion into GUVs (99% DOPC, 1% ATTO633-DOPE); exponential fit of Iin/Iout over time

acryloxyethyl thiocarbamoyl rhodamine B [Rhodamine B acrylate]
membrane permeability coefficient: 0.2301 ± 0.0016 ×10⁻⁶ cm/s
